The assay has as its target TAP-tagged Spt16 (Spt16-TAP), wild type (budding yeast (S. cerevisiae)) (UniProt P32558). The assay is described as follows: affinity purification with mass spectrometry; tandem affinity purification of wild-type Spt16 or Spt16-ΔN from yeast cells, SDS-PAGE, label-free quantitative mass spectrometry, n = 3.

By UniProt entry, the sequences of proteins in these tests, tags left out.
UniProt P32558: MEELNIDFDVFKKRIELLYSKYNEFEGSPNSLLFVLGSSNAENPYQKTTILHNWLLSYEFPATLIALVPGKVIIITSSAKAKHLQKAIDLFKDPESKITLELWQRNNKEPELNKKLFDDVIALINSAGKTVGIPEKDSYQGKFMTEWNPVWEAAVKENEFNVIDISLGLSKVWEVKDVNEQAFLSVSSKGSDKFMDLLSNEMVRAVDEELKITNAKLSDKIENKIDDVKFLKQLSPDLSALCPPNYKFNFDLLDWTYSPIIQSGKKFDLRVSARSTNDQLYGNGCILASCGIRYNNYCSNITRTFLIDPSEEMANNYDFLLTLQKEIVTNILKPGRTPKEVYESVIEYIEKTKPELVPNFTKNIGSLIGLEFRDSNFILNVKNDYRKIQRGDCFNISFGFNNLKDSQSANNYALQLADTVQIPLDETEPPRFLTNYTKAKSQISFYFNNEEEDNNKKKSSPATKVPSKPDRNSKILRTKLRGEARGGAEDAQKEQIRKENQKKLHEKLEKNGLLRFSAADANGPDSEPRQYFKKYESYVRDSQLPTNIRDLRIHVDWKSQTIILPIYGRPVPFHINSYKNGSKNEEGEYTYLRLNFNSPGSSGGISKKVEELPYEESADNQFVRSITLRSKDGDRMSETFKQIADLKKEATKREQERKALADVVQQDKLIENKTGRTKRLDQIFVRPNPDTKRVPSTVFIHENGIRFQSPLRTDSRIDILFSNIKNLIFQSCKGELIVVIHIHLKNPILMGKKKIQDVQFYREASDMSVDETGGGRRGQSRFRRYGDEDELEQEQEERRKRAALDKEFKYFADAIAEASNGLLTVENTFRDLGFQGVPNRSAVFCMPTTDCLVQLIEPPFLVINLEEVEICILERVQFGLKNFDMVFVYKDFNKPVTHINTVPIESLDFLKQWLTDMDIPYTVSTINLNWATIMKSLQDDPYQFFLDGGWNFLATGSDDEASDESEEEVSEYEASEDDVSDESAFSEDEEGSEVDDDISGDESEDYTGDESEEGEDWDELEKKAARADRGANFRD

No constants are given. Whether binding was seen depends on the method and setting. In cells and extracts the contact can be indirect. A yes stands for co-enrichment or nearness to the bait. Other partners may have been found.

B1: Mcm7 (protein, UniProt P38132 1-845)
chain: MSAALPSIQLPVDYNNLFNEITDFLVTFKQDTLSSDATRNENEDENLDAENIEQHLLEKGPKYMAMLQKVANRELNSVIIDLDDILQYQNEKFLQGTQADDLVSAIQQNANHFTELFCRAIDNNMPLPTKEIDYKDDVLDVILNQRRLRNERMLSDRTNEIRSENLMDTTMDPPSSMNDALREVVEDETELFPPNLTRRYFLYFKPLSQNCARRYRKKAISSKPLSVRQIKGDFLGQLITVRGIITRVSDVKPAVEVIAYTCDQCGYEVFQEVNSRTFTPLSECTSEECSQNQTKGQLFMSTRASKFSAFQECKIQELSQQVPVGHIPRSLNIHVNGTLVRSLSPGDIVDVTGIFLPAPYTGFKALKAGLLTETYLEAQFVRQHKKKFASFSLTSDVEERVMELITSGDVYNRLAKSIAPEIYGNLDVKKALLLLLVGGVDKRVGDGMKIRGDINVCLMGDPGVAKSQLLKAICKISPRGVYTTGKGSSGVGLTAAVMKDPVTDEMILEGGALVLADNGICCIDEFDKMDESDRTAIHEVMEQQTISISKAGINTTLNARTSILAAANPLYGRYNPRLSPLDNINLPAALLSRFDILFLMLDIPSRDDDEKLAEHVTYVHMHNKQPDLDFTPVEPSKMREYIAYAKTKRPVMSEAVNDYVVQAYIRLRQDSKREMDSKFSFGQATPRTLLGIIRLSQALAKLRLADMVDIDDVEEALRLVRVSKESLYQETNKSKEDESPTTKIFTIIKKMLQETGKNTLSYENIVKTVRLRGFTMLQLSNCIQEYSYLNVWHLINEGNTLKFVDDGTMDTDQEDSLVSTPKLAPQTTASANVSAQDSDIDLQDA
As for B1, the binding entry is “binds”.

B2: Mrc1 (protein, UniProt P25588 1-1096)
chain: MDDALHALSSLTAKKRTTTYKKVAVPILDENDNTNGNGPNDIDNPPELTGNGFLFANATLNRVKNRLEGKKAPEQNHNNGKDRSENSLPTQLISNLYDGGEELEKSEVKDNSYSEKNVSSSFTQTQRIPVSIQQDKVFNVPIHSVNDGKPTQLIKEDGLVNETSQALKTPLTTGRPGATQRIDSSGATSQTQPIKSIEPQSQIITTSSNHSNALSPKIPIIPTELIGTSPLFQSIQNRGPDTQMDVPPQTAHDEDKTQAIGIPQATHQEQKTQIDTVAQTLQDEVPHTLKIREIQSELASEDSKREKARNVEYKKPQKPIPTKKFFSKESFLADFDDSSSNEDDDIKLENAHPKPVQNDDELHENKSVELNLTDETRINEKRVPLLSSYANNLKREIDSSKCITLDLDSDSDEYGDDDMDSIKLSKDESVLPISQLSKATILNLKARLSKQNQKLSQRPNKSKDPKVDHNVLLNTLRKASRKQILDHQKEVIETKGLKLEDMAKEKEIVENLLEQEILRNKRIRQKEKRREKLEENDFQLNAHDSGSDSGSESSGFALSGNEIADYESSGSENDNRRESDSEKEDDEIILKQKKSHHVKHIINESDSDTEVEAKPKEKADESLPKRIAINLGHYGDNIGEDTDKFQETNVLDTQNIEEVMAERNTIENEVKDDVYVNEEADEAIRRQLIDKEKLQLKQKEKEHEAKIKELKKRGVTNFFEMEAEESEDEWHGIGGADGEGSDDYDSDLEKMIDDYSKNNFNPHEIREMLAAENKEMDIKMINKILYDIKNGGFRNKRAKNSLELELSDDDEDDVLQQYRLKRRELMRKRRLEIGDDAKLVKNPKSSAFFESMVEDIIEYKNPFGAEEEYNLDITSTATDLDTQDNSINVGDNTGNNEQKPVDQKNKKVIISEDFVQKSLSFLKSNNYEDFETDKELSRIQHGNDEAIEDLYTLKQNSSIKSFTNSQTDSTTSKTVNTIIDLEKRPEDEDEVENGDTSLVGVFKHPSIIKSFASRTDINDKFKEGNKTVKILKSYKTVGSSKASITYMGKTRKLIAPKRKTEGSHRYHHDHHNKKMKMKTKTKSNKLFESGQDSFDN
On to B2, for which the binding entry is recorded as “binds”.

Values taken from PMC10681723.
